PMC3834833
Construct, isoform or probe ends are uncertain for at least one entry.

Sequences of proteins named here, by UniProt entry; tags and fusion partners are left off. A change or cut given only in a name is not applied to a line headed by its entry.
UniProt Q15631: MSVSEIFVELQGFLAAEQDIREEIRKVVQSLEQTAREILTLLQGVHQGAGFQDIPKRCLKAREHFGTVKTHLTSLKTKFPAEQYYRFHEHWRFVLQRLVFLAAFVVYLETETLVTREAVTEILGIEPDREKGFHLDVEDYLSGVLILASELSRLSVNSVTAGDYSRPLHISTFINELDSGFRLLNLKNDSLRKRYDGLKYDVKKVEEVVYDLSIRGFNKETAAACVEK

Target: translin (wild type) (Homo sapiens) (UniProt Q15631)
Experiment: not stated (cited value)
Conditions: SAXS: 10 mM Tris-HCl pH 8.0, 100 mM NaCl, 0.1 mM EDTA, 1 mM DTT, 5% glycerol; complex incubated 20 min at 25 C, measured at 10 C; recombinant protein; residues 1-228; protein details: N-terminal His6 (pQE-9)

Q: Which Kd does the source give for GUGUGUGUGUGUGUGUGUGUGUGU [(GU)12] here?
A: 2 nM
